# Measurements published in patent publication US5124319A, “Benzimidazole phosphono-amino acids” (American Home Products Corporation, priority 1991, dated 1992).
# Where a name gives a salt, the structure may show the parent alone. The name of at least one read-out is uncertain. At least one compound was matched to its structure with a doubt left.
# Biological target: NMDA receptor
# Assay: [3H]CPP binding assay (displacement of tritiated CPP in rat frontal cortex homogenates)
# Method: The compounds of the invention are tested for their NMDA competitive antagonist activity by their ability to displace tritiated 3-(2-carboxypiperazine-4-yl)propyl-1-phosphonic acid (CPP), a known competitive NMDA antagonist, in rat frontal cortex homogenates in the in vitro [^3 H]CPP binding assay.
# Rats are decapitated and their brains are immediately removed, weighed and placed in approximately 15 volumes of ice cold 10% sucrose. Each brain is homogenized using a Potter Elvehjem glass homogenizer (12 strokes at 840 rpm) equipped with a Teflon pestle. The homogenate is then centrifuged at 1,000×g. for 10 minutes. The resulting pellet is discarded and the supernatant is centrifuged at 20,000×g. for 20 minutes. The crude mitochondrial pellet is resuspended in ice cold distilled water and dispersed using a Brinkmann Polytron (PT-10 at setting of 6 for 30 seconds). The suspension is centrifuged at 8,000×g. for 20 minutes. […]
# For the binding assay, the membrane pellets are thawed and resuspended in 15 volumes ice cold 50 mMolar TRIS (pH 7.6) buffer. […] The vials are placed into a Packard 460 CD (or equivalent) counter for determination of radioactivity.
# Total specific binding is defined as total binding less the binding in the presence of 1 mMolar NMDA. Specific binding in the presence of a test drug is expressed as a percent of total specific binding when no drug is present. […]
SMILES,"IC50 (standard compounds, [3H]CPP 8 nM, 23° C., 15 min, pH 7.6)","% at 10 μM ([3H]CPP binding) (10 μM, rat brain membranes)"
"CN[C@H](CC(=O)O)C(=O)O [NMDA, N-methyl-D-aspartate, reference compound]",1.88 µM,–
"N[C@@H](Cc1nc2ccccc2n1CP(=O)(O)O)C(=O)O [Example 6, S-α-Amino-1-(phosphonomethyl)-1H-benzimidazole-2-propanoic acid, dihydrochloride, hydrate]",–,63%
